Data on one substance can be found in PMC8620773.

Sequences of proteins named here, by UniProt entry; tags and fusion partners are left off.
UniProt P28066: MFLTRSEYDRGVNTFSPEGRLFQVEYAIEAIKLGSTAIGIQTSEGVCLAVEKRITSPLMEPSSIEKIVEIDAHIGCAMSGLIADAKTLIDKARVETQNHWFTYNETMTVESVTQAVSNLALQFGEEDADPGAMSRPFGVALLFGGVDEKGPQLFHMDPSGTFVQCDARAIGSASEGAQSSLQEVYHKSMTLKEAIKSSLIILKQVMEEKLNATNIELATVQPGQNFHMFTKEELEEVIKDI

For this experiment, the target named is S16-phosphorylated α5 (human (endogenous in 293T)) (UniProt P28066). The experiment can be described thus: affinity purification with mass spectrometry; anti-α5-pS16 antibody and Protein G agarose, 4 °C, 1 h, lysates of 293T cells treated with nocodazole (100 ng/mL, 16 h) against aphidicolin (10 µM, 12 h) as control; label-free LC-MS/MS.

Results are given in words; binding and its absence hold for the method and conditions named. In cells and extracts the contact can be indirect. These calls come from enrichment with a bait or labelling near it, and not all partners need be listed.

Consider “Polo-like kinase 1 (PLK1) (from UniProt P53350 1-603) (enzyme)”, for which the binding result is given as “binds”.
